Results published in patent US20120039878A1.
Positions count from the first letter of the chain named. These are yes or no findings as the source states them, for the method shown. Some binding calls cover weakened binding; strength is not graded here.

B1: murine monoclonal antibody 7D8 (ATCC Accession Number PTA-9468) (antibody, mouse IgG2b, V domains shown)
VH: EVQLVESGGRLVQPKGSLKLSCAASGFTFNTYAMYWIRQAPGKGLEWVARIRSKSNNYAIYYADSVKDRFTIFRDDSQSMLYLQMNNLKTEDTAMYYCVRPYSDSFAYWGQGTLVTVSA
VL: DVVMTQTPLSLPVSLGDQASISCRSSLSLVHSTGNTYLHWYLQKPGQSPKLLIYKVSNRFSGVPDRFSGSGSGTYFTLKISRVEAEDLGVYFCSQSTHVPFTFGGGTKLEIK
B2: murine monoclonal antibody 2A4 (ATCC Accession Number PTA-9662) (antibody, V domains shown)
VH: B1 VH
VL: B1 VL with L27Q
B3: murine monoclonal antibody 8G9 (antibody, mouse IgG2b, V domains shown)
VH: B1 VH
VL: B1 VL with L27Q

Biological target: ALλ amyloid deposits composed of λ2 fragments (λ2 protein, SEQ ID NO: 86)
Test: Immunohistochemistry, 3 µg/mL mAb on formalin-fixed sections

Binder | binding
B1 | binds
B2 | binds
B3 | binds
